The source of these data is publication PMC11965332.

Protein sequences, listed by entry. Tags and fused reporters are not part of them. Lines headed by an entry give the natural chain unless they say otherwise; changes in a name come on top.
UniProt O95155: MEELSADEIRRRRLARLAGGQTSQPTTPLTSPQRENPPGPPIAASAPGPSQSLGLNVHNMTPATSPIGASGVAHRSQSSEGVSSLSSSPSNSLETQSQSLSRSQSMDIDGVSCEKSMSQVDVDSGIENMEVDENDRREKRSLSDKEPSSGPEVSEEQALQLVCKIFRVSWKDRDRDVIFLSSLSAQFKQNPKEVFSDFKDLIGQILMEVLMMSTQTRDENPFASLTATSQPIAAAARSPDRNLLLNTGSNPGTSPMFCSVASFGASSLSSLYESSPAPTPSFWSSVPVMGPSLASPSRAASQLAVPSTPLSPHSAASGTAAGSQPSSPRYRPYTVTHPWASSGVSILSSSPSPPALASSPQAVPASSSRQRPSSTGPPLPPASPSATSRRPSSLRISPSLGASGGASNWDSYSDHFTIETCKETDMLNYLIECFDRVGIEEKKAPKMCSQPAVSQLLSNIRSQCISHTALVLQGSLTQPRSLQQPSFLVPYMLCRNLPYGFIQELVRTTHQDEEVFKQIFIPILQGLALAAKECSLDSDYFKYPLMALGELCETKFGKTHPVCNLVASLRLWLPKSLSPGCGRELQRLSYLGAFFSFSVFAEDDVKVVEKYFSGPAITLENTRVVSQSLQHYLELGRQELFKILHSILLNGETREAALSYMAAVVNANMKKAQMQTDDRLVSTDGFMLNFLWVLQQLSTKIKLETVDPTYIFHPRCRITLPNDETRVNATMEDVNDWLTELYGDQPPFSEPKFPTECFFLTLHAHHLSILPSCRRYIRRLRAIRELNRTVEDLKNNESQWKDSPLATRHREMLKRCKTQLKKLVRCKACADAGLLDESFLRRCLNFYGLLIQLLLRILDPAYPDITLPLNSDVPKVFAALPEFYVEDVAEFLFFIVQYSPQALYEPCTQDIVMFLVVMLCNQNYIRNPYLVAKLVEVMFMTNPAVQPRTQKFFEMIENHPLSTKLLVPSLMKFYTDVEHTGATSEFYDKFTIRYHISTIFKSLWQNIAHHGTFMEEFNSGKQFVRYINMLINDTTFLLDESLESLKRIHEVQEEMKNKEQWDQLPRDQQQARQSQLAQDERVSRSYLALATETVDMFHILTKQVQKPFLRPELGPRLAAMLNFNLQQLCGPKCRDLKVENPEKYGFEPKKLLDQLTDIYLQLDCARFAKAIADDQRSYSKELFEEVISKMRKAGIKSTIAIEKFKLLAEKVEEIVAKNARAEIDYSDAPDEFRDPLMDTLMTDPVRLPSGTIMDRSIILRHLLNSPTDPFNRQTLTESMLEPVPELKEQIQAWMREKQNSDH
UniProt Q00987: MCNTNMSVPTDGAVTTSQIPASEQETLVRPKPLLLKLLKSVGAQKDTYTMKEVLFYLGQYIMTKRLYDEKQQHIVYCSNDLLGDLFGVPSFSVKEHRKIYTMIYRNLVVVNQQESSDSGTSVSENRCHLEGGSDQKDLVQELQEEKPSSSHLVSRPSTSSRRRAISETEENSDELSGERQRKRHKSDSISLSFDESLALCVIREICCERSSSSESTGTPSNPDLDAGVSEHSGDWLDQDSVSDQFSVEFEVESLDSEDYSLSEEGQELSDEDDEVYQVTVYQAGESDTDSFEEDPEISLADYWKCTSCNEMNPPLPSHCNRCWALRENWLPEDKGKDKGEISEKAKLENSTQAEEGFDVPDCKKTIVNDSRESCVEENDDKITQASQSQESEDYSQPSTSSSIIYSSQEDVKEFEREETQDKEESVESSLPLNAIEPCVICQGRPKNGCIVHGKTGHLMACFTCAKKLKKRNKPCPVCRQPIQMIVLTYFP

These are yes or no findings as the source states them, for the method shown. Binding seen in cells or lysates may run through a third protein. Binding can be weak; no strength is given.

In test [1] the target is Flag-tagged C800 construct of UBE4B (first 800 N-terminal amino acids) (UniProt O95155). Put plainly: co-IP; HCT116 cells transfected with HDM2, Flag-UBE4B, Flag-C500, Flag-C800; 10 J/m2 UV, 3 h; immunoprecipitated with anti-Flag (M5); Wip1 and HDM2 detected by immunoblotting.
Test [2] deals with Flag-tagged C500 construct of UBE4B (first 500 N-terminal amino acids) (UniProt O95155). The test is described as above.

As to “HDM2, expressed from pCMV-BAM-HDM2 (from UniProt Q00987 1-491)”, the binding entry in test [1] and in test [2] was “binds” throughout.

B1: Wild-type p53-induced phosphatase 1 (Wip1), endogenous (enzyme, UniProt O15297 1-605)
chain: MAGLYSLGVSVFSDQGGRKYMEDVTQIVVEPEPTAEEKPSPRRSLSQPLPPRPSPAALPGGEVSGKGPAVAAREARDPLPDAGASPAPSRCCRRRSSVAFFAVCDGHGGREAAQFAREHLWGFIKKQKGFTSSEPAKVCAAIRKGFLACHLAMWKKLAEWPKTMTGLPSTSGTTASVVIIRGMKMYVAHVGDSGVVLGIQDDPKDDFVRAVEVTQDHKPELPKERERIEGLGGSVMNKSGVNRVVWKRPRLTHNGPVRRSTVIDQIPFLAVARALGDLWSYDFFSGEFVVSPEPDTSVHTLDPQKHKYIILGSDGLWNMIPPQDAISMCQDQEEKKYLMGEHGQSCAKMLVNRALGRWRQRMLRADNTSAIVICISPEVDNQGNFTNEDELYLNLTDSPSYNSQETCVMTPSPCSTPPVKSLEEDPWPRVNSKDHIPALVRSNAFSENFLEVSAEIARENVQGVVIPSKDPEPLEENCAKALTLRIHDSLNNSLPIGLVPTNSTNTVMDQKNLKMSTPGQMKAQEIERTPPTNFKRTLEESNSGPLMKKHRRNGLSRSSGAQPASLPTTSQRKNSVKLTMRRRLRGQKKIGNPLLHQHRKTVCVC
Regarding B1, the binding entry is “binds” in test [1] and “no binding” in test [2].
